Source: ChEMBL document CHEMBL3988442, “University of Dundee, Small-Polar-MMV Screening Library” (2021).

Protein sequences, listed by entry. Tags and fused reporters are not part of them. Residues count along the entry.
UniProt Q4DA54, 1-478: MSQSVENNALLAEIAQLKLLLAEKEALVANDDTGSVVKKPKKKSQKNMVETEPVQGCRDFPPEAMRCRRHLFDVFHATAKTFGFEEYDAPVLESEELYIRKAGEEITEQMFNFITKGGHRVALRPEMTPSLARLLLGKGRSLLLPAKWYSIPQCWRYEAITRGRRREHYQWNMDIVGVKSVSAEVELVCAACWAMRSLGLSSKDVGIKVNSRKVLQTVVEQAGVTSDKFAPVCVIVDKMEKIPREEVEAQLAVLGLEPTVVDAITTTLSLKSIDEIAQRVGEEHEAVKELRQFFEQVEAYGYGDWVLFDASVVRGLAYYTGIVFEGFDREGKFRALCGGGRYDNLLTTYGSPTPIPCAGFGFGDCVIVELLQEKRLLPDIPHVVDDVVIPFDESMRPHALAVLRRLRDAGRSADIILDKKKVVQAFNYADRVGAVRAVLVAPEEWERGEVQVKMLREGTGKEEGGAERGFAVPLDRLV

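Histidine-tRNA ligase, Trypanosoma cruzi CL Brener (UniProt Q4DA54). Enzyme assay of histidyl-tRNA synthetase; the read-out is not stated. Compounds at 30 µM. The record gives no direction; compounds that gave an IC50 in retests scored well above the rest, so higher reads as stronger inhibition. Size under these conditions: about 69,000 compounds, about 31 of them at 50% or above in at least one test.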

Results are given as percent effect. The controls that fix the scale are not given in the record; negative values are as filed. The compounds are a random part of those screened.

structure,Percent Effect
Cc1cc(C2CCNCC2)nc(-c2ccsc2)n1,11.65%
CC(C)(C)c1cnc(CN2CCC(c3ccnn3CCO)CC2)o1,0.7519%
CCCC1CN(CC(C)C)C(=O)c2cccnc2O1 (centres unmarked),-4.494%
CN(CCC(C)(C)O)C(=O)C1CCC(=O)N(Cc2ccc(Cl)cc2)C1 (centres unmarked),8.671%
CCCOc1ccc(C(=O)N2CC[C@H]3CC[C@@H](C2)N3)cc1Cl,7.895%
Cc1cc(C)n(CC2CN(Cc3ccc(C(N)=O)cc3)CCO2)n1 (centres unmarked),3.139%
O=C(NCc1cnc2n1CCN(Cc1nccs1)CC2)C1CCC1,2.804%
Cc1cccc(-n2nc(CC(C)C)nc2CCn2ccc(=O)[nH]c2=O)c1,2.89%
Cc1nn(C)c(N(C)C)c1CNCc1ccnn1C,6.897%
c1ccc(O[C@@H]2CC[C@H]3[C@H]2OCCN3Cc2ccsc2)nc1,-0.9804%
Cc1c[nH]c(CN(C)C(=O)[C@@]23CNC[C@@H]2CN(c2ncccn2)C3)n1,5.603%
N#Cc1ccc(NCc2cccc(OCC3CCCO3)c2)nc1 (centres unmarked),9%
Cc1cccc2cc(CN3CCC(N4CCOCC4)CC3)c(=O)[nH]c12,-3.865%
Cc1occc1CNC(=O)Nc1ccc2nc(N3CCOCC3)oc2c1,13.64%
O=C(Nc1ccccn1)c1csc(NC2CCCC2)n1,7.772%
Cc1ccc(CN(CCCn2ccnc2)Cc2cccs2)s1,8.209%
Cc1cc(Cl)ccc1C(=O)C1CCCN(Cc2cnc(N(C)C)s2)C1 (centres unmarked),10.3%
Cc1ccc2c(c1)Oc1ncccc1C(=O)N2,0.8772%
CC(C)C(=O)NC1CCN(Cc2cccc3c2OCCO3)CC1,2.632%
Cc1nn(C)c(C)c1C1CCCN1C(=O)c1ccc2c(c1)OCCO2 (centres unmarked),4.07%
Cc1csc(N2CCN(CC(=O)N3CCNC3=O)CC2C)n1 (centres unmarked),3.207%
Cc1cc(C)nc(N2CCCC2c2cccnc2)n1 (centres unmarked),4.706%
Cc1cc(CN2CCC(O)(Cn3ccc4ncccc43)CC2)c(C)s1,14.89%
NC(=O)Cn1cc(NC(=O)N2CCCCCC2)cn1,8.235%
Cc1nc(C2CCNCC2)cc(N(C)CCc2cn[nH]c2)n1,3.061%
Cc1ccc(C2(O)CCN(C(=O)CCn3c(C)cccc3=O)CC2)nc1,10.05%
COCc1nc(CN(CC(N)=O)C(C)C)cs1,4.571%
Cc1ccc(-c2noc(C3CCN3C(=O)c3cc[nH]n3)n2)s1 (centres unmarked),1.13%
O=C(CCc1ccccc1)N1CC(n2cncn2)C1,2.907%
CC(C)c1ccn(C2(C(=O)O)CCN(c3cc(C(N)=O)ccn3)CC2)n1,4.04%
CCC(NC(=O)C(C)C)c1ccccc1C (centres unmarked),3.015%
Cn1ccnc1COc1ccc(COC(=O)C2CCCO2)cc1 (centres unmarked),-16.85%
COCCn1cc(-c2cc(C(=O)N3CCCC3)c3ccccn23)nc1C,-857.5%
COc1ccc(C(=O)N2CCN3C(=O)CNC(=O)[C@@H]3C2)cc1,8.911%
CN1CC[C@]2(CN(CC3CC3)C[C@H]2c2ccccc2)C1=O,0.5587%
CCOc1ccc(CC(=O)N2CCN(c3nccn3C)CC2)cc1,8.696%
CC(=O)N1CCC(c2nc3ccc(-c4cccc(F)c4)cn3n2)CC1,6.145%
CCN(CC)CC1CCN(C(=O)CCn2cccn2)CC1,6.122%
COCCN(Cc1c(C)nn(C)c1C)C(=O)C1COc2ccccc2C1 (centres unmarked),7.027%
COc1nc2c(cc1C(=O)NCCc1nc(C)c(C(=O)O)s1)CCC2,0.5435%
CC1c2ncc(Cn3cncn3)n2CCN1C(=O)N(C)C (centres unmarked),5.714%
Cc1csc(C(=O)N2CCCC(c3[nH]ncc3S(C)(=O)=O)C2)c1 (centres unmarked),9.89%
COC(=O)[C@@H]1C[C@@H](O)CN1Cc1ccn(-c2ccc(F)cc2)n1,2.469%
Cc1[nH]ccc1C(=O)N[C@H]1CN(CCO)C[C@@H]1C1CC1,-11.33%
CCc1cccc(N2CCC(NC(=O)c3ccco3)CC2)c1,3.38%
CC(C)c1cnc(CN2CCCS2(=O)=O)o1,9.278%
Cc1cccc2[nH]c(C3CCN(C(=O)c4ccc[nH]4)CC3)nc12,-3.518%
CCc1cc(NCC(N)=O)nc(N2CCCCC2)n1,5.641%
CNC(=O)c1ccc(C2CN(c3cc(C)nc(N)n3)CCO2)nc1 (centres unmarked),5.085%
CC(NC(=O)c1cc(N2CCNC2=O)ccc1F)c1ccc(F)cc1 (centres unmarked),4.082%
Cc1cc(C(=O)N(CCN(C)C)Cc2ccc(Cl)cc2)no1,4.926%
CCOC(=O)Cn1ccc2cc(NC(=O)N3CCSCC3)ccc21,6.952%
C=C(C)CN1CCN(Cc2cnc(OC)nc2)CC1,4.563%